The structures given here were assigned with low confidence; some may be wrong.
Experiments:
Recombinant human Src = Recombinant human Src (Homo sapiens, UniProt P12931); assay: Src tyrosine kinase activity assay with poly E4Y and 32P-ATP; conditions: read-out: IC50 Value Src, NI = no inhibition
Protocol: (§1) Recombinant human Src was expressed using the baculovirus-insect cell system and purified as published (Budde et al., 1993 and 2000). Recombinant Csk and the FGF receptor (FGFr) were expressed as […] fusion proteins using the pGEX expression vector and E. coli, and purified as described (Sun & Budde, 1995).
(§2) The tyrosine kinase activity of Src, Csk and FGFr was determined using poly E4Y and ^32P-ATP. Briefly, enzymes were assayed in a reaction mixture […] consisting of 0.15 M EPPS-NaOH (pH 8.0) with 6 mM MgCl2, 0.2 mM γ^32P-ATP (0.2-0.4 mCi/μmol), 10% glycerol, 0.1% Triton X-100, and poly E4Y. Poly E4Y is a synthetic peptide whose phosphorylation is measured in this assay by the addition of the radioactively labeled phosphate from the ATP (Budde et al., 1995). For screening assays, 50 μg/ml poly E4Y was used, and for Ki determinations variable concentrations (0, 20, 30, 75, and 150 μg/ml) of poly E4Y were used. When ATP was varied (0, 50, 100 and 250 μM), poly E4Y was kept constant at 150 μg/ml.

By UniProt entry, the sequences of proteins in these tests, tags left out. Residues count along the entry.
UniProt P12931, whole entry: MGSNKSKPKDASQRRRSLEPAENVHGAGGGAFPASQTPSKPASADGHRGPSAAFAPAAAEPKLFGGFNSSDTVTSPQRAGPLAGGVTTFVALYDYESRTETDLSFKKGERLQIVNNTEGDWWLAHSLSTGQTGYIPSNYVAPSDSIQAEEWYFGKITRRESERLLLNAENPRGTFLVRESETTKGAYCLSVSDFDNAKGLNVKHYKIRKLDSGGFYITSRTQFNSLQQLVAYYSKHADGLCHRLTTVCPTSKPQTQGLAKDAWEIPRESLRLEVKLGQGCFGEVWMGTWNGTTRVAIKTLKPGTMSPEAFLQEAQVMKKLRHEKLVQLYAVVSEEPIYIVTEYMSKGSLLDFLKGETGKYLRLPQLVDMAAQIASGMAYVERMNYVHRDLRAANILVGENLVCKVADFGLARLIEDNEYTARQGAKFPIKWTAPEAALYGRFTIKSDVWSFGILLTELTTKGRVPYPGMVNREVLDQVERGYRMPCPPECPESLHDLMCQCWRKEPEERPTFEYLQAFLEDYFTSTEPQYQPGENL
UniProt P11362, 22-822 limits assumed: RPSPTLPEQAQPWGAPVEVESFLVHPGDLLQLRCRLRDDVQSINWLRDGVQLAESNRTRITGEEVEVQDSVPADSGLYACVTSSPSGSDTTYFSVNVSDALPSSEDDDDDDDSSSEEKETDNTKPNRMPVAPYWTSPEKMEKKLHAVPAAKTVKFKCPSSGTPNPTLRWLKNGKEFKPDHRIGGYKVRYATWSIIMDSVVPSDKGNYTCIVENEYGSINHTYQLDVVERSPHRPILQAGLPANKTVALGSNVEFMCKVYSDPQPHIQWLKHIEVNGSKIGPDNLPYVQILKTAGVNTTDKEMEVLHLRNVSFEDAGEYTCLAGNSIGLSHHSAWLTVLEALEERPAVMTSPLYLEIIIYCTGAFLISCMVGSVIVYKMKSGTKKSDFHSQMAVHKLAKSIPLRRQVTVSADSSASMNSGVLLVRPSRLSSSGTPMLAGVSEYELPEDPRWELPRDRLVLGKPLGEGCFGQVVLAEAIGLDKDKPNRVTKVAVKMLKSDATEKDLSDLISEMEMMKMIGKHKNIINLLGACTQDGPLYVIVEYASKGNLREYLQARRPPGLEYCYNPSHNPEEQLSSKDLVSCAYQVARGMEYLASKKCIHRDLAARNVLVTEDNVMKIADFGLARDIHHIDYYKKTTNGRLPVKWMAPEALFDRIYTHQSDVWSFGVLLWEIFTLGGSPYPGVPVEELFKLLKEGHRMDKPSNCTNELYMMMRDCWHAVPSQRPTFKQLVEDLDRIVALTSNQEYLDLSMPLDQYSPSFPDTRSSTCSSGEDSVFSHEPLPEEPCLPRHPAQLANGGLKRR

FGF receptor (FGFr) = FGF receptor (FGFr) (UniProt P11362); assay: FGFr tyrosine kinase activity assay with poly E4Y and 32P-ATP; conditions: read-out: IC50 Value FGFr, NI = no inhibition
Protocol: as §1, §2

IC50 (Recombinant human Src): 0.01 µM | IC50 (FGF receptor (FGFr)): 6.2 µM
SMILES: CCOc1ccccc1-c1sc2c(NN=Cc3ccc(-n4ccnc4)cc3)ncnc2c1C#N
